No constants are given. Whether binding was seen depends on the method and setting. In cells and extracts the contact can be indirect. Some results given as binding are weak or reduced against the parent protein; the word gives no strength.

The chains behind the UniProt entries cited, without tags or fusion partners.
UniProt Q9H6Z9: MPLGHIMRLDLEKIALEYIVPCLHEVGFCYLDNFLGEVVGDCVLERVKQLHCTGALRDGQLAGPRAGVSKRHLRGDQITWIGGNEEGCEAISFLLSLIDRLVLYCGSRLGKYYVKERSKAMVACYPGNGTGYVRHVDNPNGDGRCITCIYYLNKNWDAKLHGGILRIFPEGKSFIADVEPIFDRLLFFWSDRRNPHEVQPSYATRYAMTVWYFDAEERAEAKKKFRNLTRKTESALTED
UniProt Q93008: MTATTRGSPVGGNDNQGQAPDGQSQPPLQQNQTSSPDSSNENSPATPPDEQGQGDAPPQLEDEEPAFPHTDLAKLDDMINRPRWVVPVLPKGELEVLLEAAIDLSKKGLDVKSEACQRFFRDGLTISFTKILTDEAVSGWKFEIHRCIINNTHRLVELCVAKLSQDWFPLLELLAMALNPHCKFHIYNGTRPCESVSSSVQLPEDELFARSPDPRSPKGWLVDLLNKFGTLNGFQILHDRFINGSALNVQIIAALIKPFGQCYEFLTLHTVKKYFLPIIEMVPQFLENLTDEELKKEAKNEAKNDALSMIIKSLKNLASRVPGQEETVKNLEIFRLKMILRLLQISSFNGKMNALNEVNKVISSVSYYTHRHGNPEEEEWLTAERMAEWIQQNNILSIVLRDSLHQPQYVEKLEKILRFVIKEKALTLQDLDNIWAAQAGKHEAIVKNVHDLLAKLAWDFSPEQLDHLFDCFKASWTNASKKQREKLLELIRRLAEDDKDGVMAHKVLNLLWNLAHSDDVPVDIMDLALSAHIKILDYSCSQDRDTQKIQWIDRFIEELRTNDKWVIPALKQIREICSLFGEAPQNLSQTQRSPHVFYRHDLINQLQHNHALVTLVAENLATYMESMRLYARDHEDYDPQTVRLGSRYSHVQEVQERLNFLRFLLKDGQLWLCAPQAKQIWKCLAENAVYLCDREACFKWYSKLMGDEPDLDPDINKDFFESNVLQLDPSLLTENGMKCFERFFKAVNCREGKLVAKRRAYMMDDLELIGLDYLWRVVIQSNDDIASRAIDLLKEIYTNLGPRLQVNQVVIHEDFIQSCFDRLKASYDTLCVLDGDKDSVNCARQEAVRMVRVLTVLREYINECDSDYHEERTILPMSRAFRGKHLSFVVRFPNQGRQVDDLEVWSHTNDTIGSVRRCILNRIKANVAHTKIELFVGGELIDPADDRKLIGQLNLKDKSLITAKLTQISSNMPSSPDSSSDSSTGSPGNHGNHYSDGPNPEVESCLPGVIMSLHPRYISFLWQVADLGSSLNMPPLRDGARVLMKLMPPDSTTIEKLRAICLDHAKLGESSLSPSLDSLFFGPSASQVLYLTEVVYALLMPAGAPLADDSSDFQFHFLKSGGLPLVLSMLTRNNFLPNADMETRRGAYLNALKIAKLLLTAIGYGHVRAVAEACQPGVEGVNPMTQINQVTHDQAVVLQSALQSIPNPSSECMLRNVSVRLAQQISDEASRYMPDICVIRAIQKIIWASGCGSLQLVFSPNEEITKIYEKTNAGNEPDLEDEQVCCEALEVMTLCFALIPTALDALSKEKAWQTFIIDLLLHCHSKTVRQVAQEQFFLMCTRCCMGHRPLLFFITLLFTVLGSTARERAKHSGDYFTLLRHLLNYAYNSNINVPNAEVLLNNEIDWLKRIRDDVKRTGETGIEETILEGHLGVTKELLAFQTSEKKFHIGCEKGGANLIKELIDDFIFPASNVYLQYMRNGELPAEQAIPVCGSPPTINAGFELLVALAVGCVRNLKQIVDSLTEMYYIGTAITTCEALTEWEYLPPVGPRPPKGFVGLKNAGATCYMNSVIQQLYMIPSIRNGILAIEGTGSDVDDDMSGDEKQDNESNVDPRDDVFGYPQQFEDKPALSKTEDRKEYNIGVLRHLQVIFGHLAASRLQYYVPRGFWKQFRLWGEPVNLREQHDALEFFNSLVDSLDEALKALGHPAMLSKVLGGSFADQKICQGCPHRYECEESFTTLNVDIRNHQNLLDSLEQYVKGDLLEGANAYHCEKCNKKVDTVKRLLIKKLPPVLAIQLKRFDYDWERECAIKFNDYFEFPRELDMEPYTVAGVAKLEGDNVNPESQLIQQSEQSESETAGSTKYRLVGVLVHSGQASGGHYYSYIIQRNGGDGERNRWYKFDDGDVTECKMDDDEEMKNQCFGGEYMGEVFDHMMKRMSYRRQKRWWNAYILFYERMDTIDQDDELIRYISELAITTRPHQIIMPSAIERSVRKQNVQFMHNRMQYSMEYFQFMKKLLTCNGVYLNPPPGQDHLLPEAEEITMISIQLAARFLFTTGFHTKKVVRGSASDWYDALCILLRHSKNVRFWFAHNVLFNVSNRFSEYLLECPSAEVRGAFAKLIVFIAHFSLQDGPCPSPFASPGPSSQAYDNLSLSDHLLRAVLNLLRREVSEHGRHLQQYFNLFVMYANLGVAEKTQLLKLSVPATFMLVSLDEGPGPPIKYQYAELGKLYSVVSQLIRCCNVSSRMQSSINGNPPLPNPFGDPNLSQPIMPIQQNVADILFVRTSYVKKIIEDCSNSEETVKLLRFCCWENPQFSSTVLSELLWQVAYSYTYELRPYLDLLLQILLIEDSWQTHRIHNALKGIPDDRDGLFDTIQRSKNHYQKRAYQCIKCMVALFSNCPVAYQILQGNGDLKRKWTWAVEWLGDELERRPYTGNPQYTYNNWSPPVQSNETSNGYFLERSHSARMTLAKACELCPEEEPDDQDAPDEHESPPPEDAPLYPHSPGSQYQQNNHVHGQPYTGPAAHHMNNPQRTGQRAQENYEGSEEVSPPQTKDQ

The text below walks through data of paper PMC8191029.

The target in experiment [1] is prolyl 4-hydroxylase domain protein 3 (human (endogenous in RBE and HUCCT)) (UniProt Q9H6Z9). The experiment in a line: co-IP; endogenous proteins; lysates of RBE and HUCCT cells (NP40 lysis buffer) immunoprecipitated with control IgG, anti-USP9X or anti-EGLN3 antibody overnight at 4 °C, Protein A/G, immunoblotting. In general terms: Immunoblotting shows a protein as a band on a membrane.

The target of the next experiment is HA-EGLN3 (UniProt Q9H6Z9). The experiment in a line: co-IP; HEK293T cells transiently expressing Flag-USP9X and HA-EGLN3; lysates (NP40 lysis buffer) immunoprecipitated with anti-Flag or anti-HA antibody overnight at 4 °C, Protein A/G, immunoblotting.
A further experiment addresses Flag-USP9X (UniProt Q93008). Described as above.
The target in experiment [2] is Ubiquitin-specific peptidase 9X (human (endogenous in RBE and HUCCT)) (UniProt Q93008). Kind of experiment: co-IP; endogenous proteins; lysates of RBE and HUCCT cells (NP40 lysis buffer) immunoprecipitated with control IgG, anti-USP9X or anti-EGLN3 antibody overnight at 4 °C, Protein A/G, immunoblotting.

Consider “Ubiquitin-specific peptidase 9X (from UniProt Q93008 1-2554) (enzyme)”, for which, in experiment [1], the binding entry is given as “binds”. As to “Flag-USP9X (from UniProt Q93008 1-2554) (enzyme)”, the binding result in the experiment with HA-EGLN3 is given as “binds”.

Take “HA-EGLN3 (from UniProt Q9H6Z9 1-239) (enzyme)”: the binding result in the experiment with Flag-USP9X is on record as “binds”. Consider “prolyl 4-hydroxylase domain protein 3 (from UniProt Q9H6Z9 1-239) (enzyme)”, for which the binding entry in experiment [2] is reported as “binds”.
